Measured data: PubChem BioAssay AID1508597 (Cure First, 2020)

Aim: 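Knock-downs altering ovarian cancer cell survival with or without PARP inhibitor rucaparib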 (primary screen)
System: human ovarian carcinoma lines grown from tumours: OCI-P5x (papillary serous) and OCI-C5x (clear cell)
Knock-down reagent: siRNA pool against human genes, 1.25 pmol siRNA per well
Timing: 72 h or 96 h, depending on the cell culture
Conditions: rucaparib 20 µM (about IC30) or vehicle, present until read-out
Rucaparib or vehicle: Rucaparib
Cell line: OCI-C5x (clear cell)
Measurement: 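Luminescent ATP-based viability assay read 72 or 96 h after transfection, depending on culture, given as normalised percent viability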
Reading the numbers: viability, normalised: higher = more viable cells remaining
Active means: 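Active when normalised viability falls below 80 percent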
Calls: active = viability under 80%; inactive = viability 80% or more
This is an unselected part of the about 2,100 reagents, in one setting of the screen. 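Calls flag viability under 80% in either arm, not effects specific to rucaparib; the reference for percent is not stated.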 A number with no mark means an inactive call. A reagent listed more than once was tested more than once; the source does not tell the runs apart. Not given: the 100% reference.

The first 3 entries, to show the layout:
{"Target gene":"VRK2 (VRK serine/threonine kinase 2)","technical replicate":"1","viability, normalised (%)":"71.8 (active)"}
{"Target gene":"VRK2 (VRK serine/threonine kinase 2)","technical replicate":"2","viability, normalised (%)":"62.1 (active)"}
{"Target gene":"VRK2 (VRK serine/threonine kinase 2)","technical replicate":"3","viability, normalised (%)":"53.8 (active)"}

The list itself, from the start:
{"Target gene":"VRK2 (VRK serine/threonine kinase 2)","technical replicate":"1","viability, normalised (%)":"71.8 (active)"}
{"Target gene":"VRK2 (VRK serine/threonine kinase 2)","technical replicate":"2","viability, normalised (%)":"62.1 (active)"}
{"Target gene":"VRK2 (VRK serine/threonine kinase 2)","technical replicate":"3","viability, normalised (%)":"53.8 (active)"}
{"Target gene":"LIG3 (DNA ligase 3)","technical replicate":"1","viability, normalised (%)":"51.4 (active)"}
{"Target gene":"LIG3 (DNA ligase 3)","technical replicate":"2","viability, normalised (%)":"40.2 (active)"}
{"Target gene":"LIG3 (DNA ligase 3)","technical replicate":"3","viability, normalised (%)":"35.5 (active)"}
{"Target gene":"PTK6 (protein tyrosine kinase 6)","technical replicate":"1","viability, normalised (%)":"56.2 (active)"}
{"Target gene":"PTK6 (protein tyrosine kinase 6)","technical replicate":"2","viability, normalised (%)":"45.4 (active)"}
{"Target gene":"PTK6 (protein tyrosine kinase 6)","technical replicate":"3","viability, normalised (%)":"61.5 (active)"}
{"Target gene":"MTREX (Mtr4 exosome RNA helicase)","technical replicate":"1","viability, normalised (%)":"46 (active)"}
{"Target gene":"MTREX (Mtr4 exosome RNA helicase)","technical replicate":"2","viability, normalised (%)":"30.4 (active)"}
{"Target gene":"MTREX (Mtr4 exosome RNA helicase)","technical replicate":"3","viability, normalised (%)":"41 (active)"}
{"Target gene":"CHKB (choline kinase beta)","technical replicate":"1","viability, normalised (%)":"64.9 (active)"}
{"Target gene":"CHKB (choline kinase beta)","technical replicate":"2","viability, normalised (%)":"50.1 (active)"}
{"Target gene":"CHKB (choline kinase beta)","technical replicate":"3","viability, normalised (%)":"61.7 (active)"}
{"Target gene":"PDE2A (phosphodiesterase 2A)","technical replicate":"1","viability, normalised (%)":"64.2 (active)"}
{"Target gene":"PDE2A (phosphodiesterase 2A)","technical replicate":"2","viability, normalised (%)":"55 (active)"}
{"Target gene":"PDE2A (phosphodiesterase 2A)","technical replicate":"3","viability, normalised (%)":"43.8 (active)"}
{"Target gene":"CAMK2D (calcium/calmodulin dependent protein kinase II delta)","technical replicate":"1","viability, normalised (%)":"50.7 (active)"}
{"Target gene":"CAMK2D (calcium/calmodulin dependent protein kinase II delta)","technical replicate":"1","viability, normalised (%)":"69.9 (active)"}
{"Target gene":"CAMK2D (calcium/calmodulin dependent protein kinase II delta)","technical replicate":"2","viability, normalised (%)":"61.3 (active)"}
{"Target gene":"CAMK2D (calcium/calmodulin dependent protein kinase II delta)","technical replicate":"2","viability, normalised (%)":"72.3 (active)"}
{"Target gene":"CAMK2D (calcium/calmodulin dependent protein kinase II delta)","technical replicate":"3","viability, normalised (%)":"52.1 (active)"}
{"Target gene":"CAMK2D (calcium/calmodulin dependent protein kinase II delta)","technical replicate":"3","viability, normalised (%)":"61.2 (active)"}
{"Target gene":"MED30 (mediator complex subunit 30)","technical replicate":"1","viability, normalised (%)":"37.4 (active)"}
{"Target gene":"MED30 (mediator complex subunit 30)","technical replicate":"2","viability, normalised (%)":"26.4 (active)"}
{"Target gene":"MED30 (mediator complex subunit 30)","technical replicate":"3","viability, normalised (%)":"35 (active)"}
{"Target gene":"HMGB1 (high mobility group box 1)","technical replicate":"1","viability, normalised (%)":"67.5 (active)"}
{"Target gene":"HMGB1 (high mobility group box 1)","technical replicate":"2","viability, normalised (%)":"63.3 (active)"}
{"Target gene":"HMGB1 (high mobility group box 1)","technical replicate":"3","viability, normalised (%)":"49.7 (active)"}
{"Target gene":"IFNAR2 (interferon alpha and beta receptor subunit 2)","technical replicate":"1","viability, normalised (%)":"75.4 (active)"}
{"Target gene":"IFNAR2 (interferon alpha and beta receptor subunit 2)","technical replicate":"2","viability, normalised (%)":"72.9 (active)"}
{"Target gene":"IFNAR2 (interferon alpha and beta receptor subunit 2)","technical replicate":"3","viability, normalised (%)":"57.9 (active)"}
